# In all, about 410,000 compounds went through this assay and about 5,000 (1.2%) were called active. These results got no clear call from the source, so the numbers are uncertain. Calls come from the whole dose curve; as a rule, active = well fitted inhibition curve with a large enough effect; inconclusive = small, poorly fitted or top-dose-only effect; inactive = no such curve, though single readings can be large or run the other way.
# Assay: qHTS for Inhibitors of TGF-b; note: nearly all actives have a fitted effect of over 65% in size
# Settings: HepG2 CAGA-GFP TGF-b/SMAD3 reporter, GFP fluorescence, 18 h; TGF-beta stimulated, 500 pg/mL final
# Potency is the fitted concentration of half-maximal effect.
row,SMILES,Potency
1,O=C(NCC1(N2CCOCC2)CCCCC1)c1cc2ccccc2o1,inconclusive: 0.355 µM
2,Cc1cc(C)cc(N(C(=O)c2ccccc2)C2CCN(C(=O)OC(C)(C)C)CC2)c1,inconclusive: 20 µM
3,CCCCOc1ccccc1C(=O)NCC1(N2CCOCC2)CCCCC1,inconclusive: 31.6 µM
